The source of these data is publication PMC5799184, “Gs- versus Golf-dependent functional selectivity mediated by the dopamine D1 receptor” (Nature Communications, 2018).

The chains behind the UniProt entries cited, without tags or fusion partners. Where a name states a change or a piece, a line headed by the entry shows the natural chain unless it says otherwise.
UniProt P21728: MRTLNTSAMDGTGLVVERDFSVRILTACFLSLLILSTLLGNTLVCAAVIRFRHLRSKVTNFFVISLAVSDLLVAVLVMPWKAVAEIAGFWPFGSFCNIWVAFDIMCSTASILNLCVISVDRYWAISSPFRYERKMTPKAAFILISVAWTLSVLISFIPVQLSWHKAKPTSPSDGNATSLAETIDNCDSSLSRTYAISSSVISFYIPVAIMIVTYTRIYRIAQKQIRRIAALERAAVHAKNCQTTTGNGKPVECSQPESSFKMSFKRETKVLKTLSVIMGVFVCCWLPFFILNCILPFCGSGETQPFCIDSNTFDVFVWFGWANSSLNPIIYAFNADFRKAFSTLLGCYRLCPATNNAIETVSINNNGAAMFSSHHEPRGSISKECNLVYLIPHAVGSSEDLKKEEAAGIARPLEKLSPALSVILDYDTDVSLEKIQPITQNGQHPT
UniProt P11229: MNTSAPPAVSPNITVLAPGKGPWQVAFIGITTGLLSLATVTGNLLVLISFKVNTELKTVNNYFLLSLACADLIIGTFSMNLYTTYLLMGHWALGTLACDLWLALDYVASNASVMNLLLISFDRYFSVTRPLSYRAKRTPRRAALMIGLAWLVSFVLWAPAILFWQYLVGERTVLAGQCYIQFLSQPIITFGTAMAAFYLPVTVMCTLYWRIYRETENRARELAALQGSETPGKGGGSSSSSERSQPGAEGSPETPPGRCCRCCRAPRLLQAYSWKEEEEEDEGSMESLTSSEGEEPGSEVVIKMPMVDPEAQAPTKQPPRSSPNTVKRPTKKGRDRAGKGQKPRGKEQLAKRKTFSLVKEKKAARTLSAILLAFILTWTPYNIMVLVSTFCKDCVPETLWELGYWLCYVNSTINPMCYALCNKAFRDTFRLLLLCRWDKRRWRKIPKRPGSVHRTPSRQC
UniProt O95622: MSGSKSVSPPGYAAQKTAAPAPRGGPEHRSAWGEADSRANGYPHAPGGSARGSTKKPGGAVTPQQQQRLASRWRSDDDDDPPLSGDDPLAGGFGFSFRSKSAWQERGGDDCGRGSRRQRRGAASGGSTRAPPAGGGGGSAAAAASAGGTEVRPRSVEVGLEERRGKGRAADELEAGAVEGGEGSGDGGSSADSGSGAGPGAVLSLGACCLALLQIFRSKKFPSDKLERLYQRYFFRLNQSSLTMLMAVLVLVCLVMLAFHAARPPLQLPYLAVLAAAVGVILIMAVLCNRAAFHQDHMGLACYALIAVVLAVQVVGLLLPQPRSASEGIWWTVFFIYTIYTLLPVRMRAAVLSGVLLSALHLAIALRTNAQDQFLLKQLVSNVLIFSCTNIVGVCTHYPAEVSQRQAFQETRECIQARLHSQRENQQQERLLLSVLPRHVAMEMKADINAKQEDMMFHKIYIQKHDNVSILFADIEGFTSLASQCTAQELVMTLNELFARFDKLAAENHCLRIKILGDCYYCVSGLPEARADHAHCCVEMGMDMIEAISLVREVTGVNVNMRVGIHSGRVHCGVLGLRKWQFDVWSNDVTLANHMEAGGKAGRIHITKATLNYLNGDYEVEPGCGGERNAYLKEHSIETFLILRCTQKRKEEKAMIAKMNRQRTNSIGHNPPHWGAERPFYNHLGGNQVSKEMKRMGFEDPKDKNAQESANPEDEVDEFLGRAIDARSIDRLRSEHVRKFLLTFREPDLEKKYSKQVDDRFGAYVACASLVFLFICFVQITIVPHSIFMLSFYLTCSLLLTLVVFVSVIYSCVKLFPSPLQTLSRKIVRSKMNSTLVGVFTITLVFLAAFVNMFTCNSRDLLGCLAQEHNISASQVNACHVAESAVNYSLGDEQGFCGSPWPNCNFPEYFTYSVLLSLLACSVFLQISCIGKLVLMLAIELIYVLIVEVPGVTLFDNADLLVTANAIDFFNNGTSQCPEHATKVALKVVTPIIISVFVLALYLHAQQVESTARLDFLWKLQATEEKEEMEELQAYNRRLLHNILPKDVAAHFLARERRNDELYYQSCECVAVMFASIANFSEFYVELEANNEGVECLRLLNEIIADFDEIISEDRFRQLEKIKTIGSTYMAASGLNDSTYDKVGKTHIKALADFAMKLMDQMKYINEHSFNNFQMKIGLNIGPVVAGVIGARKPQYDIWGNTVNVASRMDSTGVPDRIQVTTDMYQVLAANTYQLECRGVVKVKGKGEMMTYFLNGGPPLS
UniProt P38405: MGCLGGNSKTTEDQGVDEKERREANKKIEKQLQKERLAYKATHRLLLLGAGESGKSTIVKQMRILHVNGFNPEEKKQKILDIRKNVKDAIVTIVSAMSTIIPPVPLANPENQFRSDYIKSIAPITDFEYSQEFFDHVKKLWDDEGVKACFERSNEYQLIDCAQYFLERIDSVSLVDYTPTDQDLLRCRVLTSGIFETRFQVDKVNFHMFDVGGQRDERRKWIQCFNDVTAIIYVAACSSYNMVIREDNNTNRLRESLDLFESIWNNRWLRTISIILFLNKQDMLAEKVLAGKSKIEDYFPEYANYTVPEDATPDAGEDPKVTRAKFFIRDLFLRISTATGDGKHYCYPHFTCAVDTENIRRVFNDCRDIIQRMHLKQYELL
UniProt P63096: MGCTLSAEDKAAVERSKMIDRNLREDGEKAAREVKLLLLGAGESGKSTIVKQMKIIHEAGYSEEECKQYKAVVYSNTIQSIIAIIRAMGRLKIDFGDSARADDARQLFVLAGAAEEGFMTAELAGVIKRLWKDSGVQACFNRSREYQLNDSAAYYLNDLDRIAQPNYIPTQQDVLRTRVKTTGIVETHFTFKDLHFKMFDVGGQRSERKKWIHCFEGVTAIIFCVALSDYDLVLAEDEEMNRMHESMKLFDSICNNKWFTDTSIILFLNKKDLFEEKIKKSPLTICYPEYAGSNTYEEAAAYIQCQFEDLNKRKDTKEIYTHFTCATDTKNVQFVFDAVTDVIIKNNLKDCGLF
UniProt P50148: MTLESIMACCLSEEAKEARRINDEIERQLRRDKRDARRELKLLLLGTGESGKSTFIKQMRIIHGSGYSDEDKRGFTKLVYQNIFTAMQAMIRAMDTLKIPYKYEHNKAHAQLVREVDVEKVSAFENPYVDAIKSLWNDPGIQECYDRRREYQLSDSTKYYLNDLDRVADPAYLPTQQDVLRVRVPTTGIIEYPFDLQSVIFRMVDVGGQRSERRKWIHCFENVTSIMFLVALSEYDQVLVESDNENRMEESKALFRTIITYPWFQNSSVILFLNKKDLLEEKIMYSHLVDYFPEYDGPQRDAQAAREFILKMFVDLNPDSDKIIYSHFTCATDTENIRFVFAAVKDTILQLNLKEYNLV
UniProt P32121: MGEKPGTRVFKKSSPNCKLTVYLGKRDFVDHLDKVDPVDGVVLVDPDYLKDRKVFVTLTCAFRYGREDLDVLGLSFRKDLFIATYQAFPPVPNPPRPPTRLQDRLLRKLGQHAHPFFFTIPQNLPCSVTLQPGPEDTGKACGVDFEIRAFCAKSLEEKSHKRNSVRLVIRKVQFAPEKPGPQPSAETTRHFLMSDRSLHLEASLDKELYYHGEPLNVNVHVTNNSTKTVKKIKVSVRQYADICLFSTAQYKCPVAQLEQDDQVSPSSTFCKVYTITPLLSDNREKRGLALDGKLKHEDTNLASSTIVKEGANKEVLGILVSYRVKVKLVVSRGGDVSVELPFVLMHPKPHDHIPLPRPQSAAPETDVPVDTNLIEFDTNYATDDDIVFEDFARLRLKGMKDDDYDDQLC

Results are given in words; binding and its absence hold for the method and conditions named. Binding seen in cells or lysates may run through a third protein. Some binding calls cover weakened binding; strength is not graded here.

Assay [1] addresses dopamine D1 receptor fused to Renilla Luciferase 8 (human) (UniProt P21728). In words: FRET or BRET; receptor-Gα engagement BRET1 in intact transfected HEK-293T cells in PBS; receptor-Rluc donor, Gα-Venus acceptor; 5 µM coelenterazine H, agonists (DA, NE, SKF38393, SKF81297, SKF82958, NPA, DHX, A77636; carbachol for M1R) added one minute later; BRET change = ratio with drug minus ratio without …. On the technique in general: In BRET a luciferase serves as donor, and the signal depends on an acceptor being close.

For assay [2], the target named is muscarinic M1 receptor (human) (UniProt P11229). Described as above.
Assay [3] deals with dopamine D1 receptor fused to Renilla Luciferase 8 (human) (UniProt P21728). Briefly: FRET or BRET; β-arrestin-2 recruitment BRET in intact transfected HEK-293T cells; D1R-Rluc donor, β-arrestin-2-Venus acceptor; GRK2 co-transfected; D1R agonists added.
In assay [4] the target is Adenylate cyclase 5 fused to NanoLuc (UniProt O95622). In words: FRET or BRET; Gα-AC5 interaction BRET in intact transfected HEK-293T cells; AC5-Nluc donor, Gαss-Venus or Gαolf-Venus acceptor; D1R co-expressed and D1R agonists (DA, NE, SKF38393, SKF81297, DHX) added.

Take “Golf/s_33–38 chimera fused to Venus (from UniProt P38405 1-381)”: in assay [1], the binding entry is reported as “binds”.
Consider “Gαi1 fused to Venus (from UniProt P63096 1-354)”, for which, in assay [1], the binding entry was “no binding”.
With “Gαq fused to Venus (from UniProt P50148 1-359)”, the binding entry is given as “no binding” in assay [1] and “binds” in assay [2].
Regarding “mVenus-fused β-arrestin-2 (from UniProt P32121 1-409)”, the binding entry in assay [3] is recorded as “binds”.
Turning to “Gαolf fused to Venus (from UniProt P38405 1-381)”, the binding entry in assay [4] and in assay [1] was “binds” each time.
